Values quoted from earlier work, collected in patent US3984531A, “Technetium-99m-tin-monofluorophosphate complex” (The Radiochemical Centre Limited, priority 1973, dated 1976).
At least one structure is not confirmed: it was looked up by name or label, or the drawing left a doubt.

Conditions: cited from earlier work

[99Tc] [technetium-99m]
external photon yield: 90%
half-life (radioactive): 0.25 days

[87Sr] [Strontium-87m, strontium-87m]
half-life (in words): short half-life

[85Sr] [Strontium-85, strontium-85]
half-life (radioactive): 65 days
